Reference: article PMC7939570, “Discovery of potent histone deacetylase inhibitors with modified phenanthridine caps” (Journal of Enzyme Inhibition and Medicinal Chemistry, 2021)
Values joined by “and” are separate entries in the source; they are usually repeats but may differ in a detail not shown here. Equal values may be shown once.

Tested on: Hela nucleus extract containing a mixture of HDAC isoforms
Test: HDAC enzyme inhibitory assay with Hela nucleus extract
Assay type: biochemical
Settings: 1 µM, mean of three experiments
Experimental: The HDAC enzyme inhibitory activities of synthesised compounds were investigated by utilising Hela nucleus extract containing a mixture of HDAC isoforms. Percentage inhibitory rate was used to determine the activity of tested compounds (Tables 1 and 2). The Fa series compounds were firstly synthesised for the activity screening. […] To investigate whether aromatic linker could improve the inhibitory activities, structural modifications were performed on current molecules.

SMILES: O=C(CCCCCCC(=O)Nc1ccccc1)NO [SAHA, Vorinostat, reference compound]
- HDACs percentage inhibitory rate: 58.27 ± 6.06% and 56.23 ± 2.12%
